Assay results published in US20260049337A1, “A R[…] A[…] OF INHIBITING TUMOR P[…] […] TIME IN TUMOR-BEARING I[…] USE THEREOF” (NANJING VIROTHER BIOPHARMACEUTICAL CO., LTD., priority 2022, published 2026).
“Also recorded” adds a separate entry of the source. At least one structure is not confirmed: it was looked up by name or label, or the drawing left a doubt.

Experiments:
[1] = tested on: LCN2 expression in CD8+ T cells; test: CD8+ T cells cultivated with Panc02 supernatant, FACScan for Lcn2; format: cell-based; conditions: 24 h
Description: Panc02 cells were cultivated in DMEM for 48 h, then supernatant was harvested and added into CD8+ T cells for further 24 h cultivation in the presence or absence of GLP1(7-36) or GLP1 analogue (Liraglutide) followed by FACScan for Lcn2 determination (FIG. VI(B)-3B).

hepatocellular carcinoma = conditions: intratumoral injection, Lu et al., Translational Oncology 2021; cited from earlier work

CCCCCCCCCCCCCCCC(=O)N[C@@H](CCC(=O)NCCCC[C@H](NC(=O)[C@H](C)NC(=O)[C@H](C)NC(=O)[C@H](CCC(N)=O)NC(=O)CNC(=O)[C@H](CCC(=O)O)NC(=O)[C@H](CC(C)C)NC(=O)[C@H](Cc1ccc(O)cc1)NC(=O)[C@H](CO)NC(=O)[C@H](CO)NC(=O)[C@@H](NC(=O)[C@H](CC(=O)O)NC(=O)[C@H](CO)NC(=O)[C@@H](NC(=O)[C@H](Cc1ccccc1)NC(=O)[C@@H](NC(=O)CNC(=O)[C@H](CCC(=O)O)NC(=O)[C@H](C)NC(=O)[C@@H](N)Cc1cnc[nH]1)[C@@H](C)O)[C@@H](C)O)C(C)C)C(=O)N[C@@H](CCC(=O)O)C(=O)N[C@@H](Cc1ccccc1)C(=O)N[C@H](C(=O)N[C@@H](C)C(=O)N[C@@H](Cc1c[nH]c2ccccc12)C(=O)N[C@@H](CC(C)C)C(=O)N[C@H](C(=O)N[C@@H](CCCNC(=N)N)C(=O)NCC(=O)N[C@@H](CCCNC(=N)N)C(=O)NCC(=O)O)C(C)C)[C@@H](C)CC)C(=O)O [liraglutide]
difference in reduction of Lcn2 expression in CD8+ T cells between GLP-1(7-36) and liraglutide [1]: no significant difference | Lcn2 expression in CD8+ T cells ([1]; vs absence of agonist, p<0.001): statistically significantly reduced | immune cells mediating the antitumor effect (hepatocellular carcinoma): induce nature killer (NK) cells-mediated antitumor effect; also recorded: nature killer (NK) cell-mediated antitumor effect
